Experimental data from patent US7557085B2, “Metabolic-based methods for modulating gene expression” (Wisconsin Alumni Research Foundation, priority 2005, dated 2009).
For at least one compound, name, drawing or mass did not settle the structure.

Columns and labels:
NRSF mediated repression = experiment: gal4-NRSF luciferase reporter (G5-TATA-Luc) in JTC-19 cells; format: cell-based, rat
NaV1.2 NRSE = experiment: ChIP for CtBP2 in JTC-19 cells with or without pyruvate, NaV1.2 NRSE; format: cell-based, rat; settings: pyruvate added to growth media
BDNF NRSE = experiment: ChIP for CtBP2 in JTC-19 cells with or without pyruvate, BDNF NRSE; format: cell-based, rat; settings: pyruvate added to growth media
[1] = test system: 'random' site lacking an NRSE; experiment: ChIP for CtBP2 in JTC-19 cells with or without pyruvate, site lacking an NRSE; format: cell-based, rat; settings: pyruvate added to growth media
[2] = test system: NRSF binding site (NSRE) from the mouse homolog of the human snail promoter; experiment: SV40 luciferase reporter with snail promoter NRSE in HEK 293 cells; format: cell-based; settings: HEK 293 cells grown overnight in the presence of glucose
Text: FIG. 12 is a graph showing repression of expression of a reporter gene using an SV40 promoter with or without the NRSF binding site from the human snail promoter. HG=glucose; Pyr=pyruvate; 2-DG=2-deoxyglucose.
To investigate whether the effects of 2-DG on gene expression is evidenced in genes known to be involved in metastatic growth, the NRSF binding site (NSRE) from the mouse homolog of the human snail promoter (GenBank Accession No. NM_005985), comprising a 440 bp nucleotide sequence
identified as SEQ ID NO. 6 was introduced into the SV40 promoter in the plasmid vector pGL3 (available from Promega, Madison, Wis.) at the BglII and Acc65I restriction enzyme recognition sites). In pGL3. a luciferase reporter gene is under the transcriptional control of the SV40 promoter, and in the construct described herein transcription from the SV40 promoter is regulated by NRSE/NRSF. Reporter plasmids with and without the NSRE insert were transfected into HEK 293 cells (ATCC Accession No. CRL 1573 ATCC, Manassas, Va.) and the cells grown overnight in the presence of glucose with and without pyruvate, 2-DG or both pyruvate and 2DG. […]

Structure (SMILES): CC(=O)C(=O)O [pyruvate, reference compound]
- repression of luciferase reporter gene expression by NRSF (fold repression gal4 DBD/gal4-NRSF) (NRSF mediated repression; 16 hrs): increased repression
- repression by NRSF of luciferase reporter (NRSF mediated repression; pyruvate added to glucose): increased repression
- CtBP2 occupancy at the NaV1.2 NRSE (NaV1.2 NRSE): increased
- CtBP2 occupancy at the BDNF NRSE (BDNF NRSE): increased
- CtBP2 occupancy at a 'random' site lacking an NRSE [1]: no change
- reporter gene expression (ratio of SV40-driven to NRSE/SV40 luciferase expression) [2]: decreased
